Results deposited as PubChem BioAssay AID1259254 (NCATS, 2017)
Purpose: 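Genome-wide screen for genes that prevent DNA re-replication in cancer cells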 (primary screen). Cells: human HCT116 colorectal cancer cells. Reagents: single siRNA against human genes. Duration: 3 days. Measured: 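Nuclei stained with Hoechst and imaged; cell-cycle phase assigned by DNA content; G2 share scaled per plate, non-targeting siRNA 0%, GMNN siRNA 100%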. Direction: G2 robust z-score and G2 cells, % of GMNN control: higher = more G2 cells, more excess DNA replication; raw share of cells in G2: higher = larger share of cells with G2 DNA content. Hit rule: 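An siRNA counts as active if its G2 robust z-score lies at least 5 MADs above the screen median; here such calls match roughly 38% of GMNN control or more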.
In all, the deposit lists about 59,000 reagents; shown is a random part of them. About 1,550 of them (2.6%) were called active. 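G2 share is only a proxy for re-replication; each gene was hit by three separate siRNAs, and active genes were retested.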 The raw values are shown without normalisation. The record does not give: the amount of reagent.

target | PubChem SID | G2 robust z-score | G2 cells, % of GMNN control | raw share of cells in G2 (%) | call
IGFBP7 (insulin like growth factor binding protein 7) | SID160775644 | 0.191 | 4.31 | 6.61 | inactive
IGFBP7 (insulin like growth factor binding protein 7) | SID160775646 | -0.272 | 1.05 | 4.59 | inactive
IGFBP7 (insulin like growth factor binding protein 7) | SID160775647 | -0.0277 | 2.77 | 6.74 | inactive
LINC00992 (long independently transcribed non-coding RNA 992) | SID160771725 | 0.248 | 4.72 | 5.33 | inactive
LINC00992 (long independently transcribed non-coding RNA 992) | SID160771726 | -0.204 | 1.53 | 3.41 | inactive
LINC00992 (long independently transcribed non-coding RNA 992) | SID160771727 | -0.314 | 0.757 | 3.89 | inactive
PTX4 (pentraxin 4) | SID160725268 | 1.72 | 15 | 9.95 | inactive
PTX4 (pentraxin 4) | SID160725269 | 1.82 | 15.8 | 11.4 | inactive
PTX4 (pentraxin 4) | SID160766556 | -1.24 | -5.73 | 1.81 | inactive
TMEM169 (transmembrane protein 169) | SID160754338 | -0.854 | -3.04 | 2.79 | inactive
TMEM169 (transmembrane protein 169) | SID160754339 | -0.331 | 0.64 | 3.2 | inactive
TMEM169 (transmembrane protein 169) | SID160754340 | -0.211 | 1.48 | 3.4 | inactive
C1orf87 (chromosome 1 open reading frame 87) | SID160756676 | -0.896 | -3.34 | 2.92 | inactive
C1orf87 (chromosome 1 open reading frame 87) | SID160756677 | 2.67 | 21.8 | 10 | inactive
C1orf87 (chromosome 1 open reading frame 87) | SID160756678 | -0.682 | -1.83 | 1.92 | inactive
LOC728877 (Zn regulated GTPase metalloprotein activator 1C pseudogene) | SID160726854 | 4.15 | 32.2 | 13.7 | inactive
LOC728877 (Zn regulated GTPase metalloprotein activator 1C pseudogene) | SID160726855 | 0.471 | 6.28 | 5.55 | inactive
LOC728877 (Zn regulated GTPase metalloprotein activator 1C pseudogene) | SID160772245 | 2.95 | 23.7 | 13 | inactive
ABLIM1 (actin binding LIM protein 1) | SID160776621 | -1.24 | -5.72 | 1.31 | inactive
ABLIM1 (actin binding LIM protein 1) | SID160776622 | 0.98 | 9.86 | 9.17 | inactive
ABLIM1 (actin binding LIM protein 1) | SID160776623 | 1.22 | 11.5 | 10 | inactive
GIGYF2 (GRB10 interacting GYF protein 2) | SID160737558 | -0.532 | -0.779 | 4.12 | inactive
GIGYF2 (GRB10 interacting GYF protein 2) | SID160737559 | -0.07 | 2.47 | 5.01 | inactive
GIGYF2 (GRB10 interacting GYF protein 2) | SID160737560 | -0.564 | -1 | 2.95 | inactive
DTHD1 (death domain containing 1) | SID160767157 | 0.189 | 4.29 | 5.37 | inactive
DTHD1 (death domain containing 1) | SID160767158 | 0.875 | 9.12 | 7.14 | inactive
DTHD1 (death domain containing 1) | SID160767160 | -0.78 | -2.52 | 3.75 | inactive
KNOP1 (lysine rich nucleolar protein 1) | SID160766969 | 0.109 | 3.74 | 5.17 | inactive
KNOP1 (lysine rich nucleolar protein 1) | SID160766970 | 1.17 | 11.2 | 7.96 | inactive
KNOP1 (lysine rich nucleolar protein 1) | SID160766971 | -1.07 | -4.56 | 2.9 | inactive
TLR6 (toll like receptor 6) | SID160728201 | -1.04 | -4.32 | 3.82 | inactive
TLR6 (toll like receptor 6) | SID160728202 | 0.626 | 7.37 | 6.23 | inactive
TLR6 (toll like receptor 6) | SID160728203 | 1.64 | 14.5 | 12.2 | inactive

Laid out differently: entries from further up.
target,PubChem SID,G2 robust z-score,"G2 cells, % of GMNN control",raw share of cells in G2 (%),call
TMEM169 (transmembrane protein 169),SID160754338,-0.854,-3.04,2.79,inactive
TMEM169 (transmembrane protein 169),SID160754339,-0.331,0.64,3.2,inactive
TMEM169 (transmembrane protein 169),SID160754340,-0.211,1.48,3.4,inactive
C1orf87 (chromosome 1 open reading frame 87),SID160756676,-0.896,-3.34,2.92,inactive
C1orf87 (chromosome 1 open reading frame 87),SID160756677,2.67,21.8,10,inactive

Further reagents follow.
target | PubChem SID | G2 robust z-score | G2 cells, % of GMNN control | raw share of cells in G2 (%) | call
PRKAG1 (protein kinase AMP-activated non-catalytic subunit gamma 1) | SID160714913 | -0.408 | 0.0941 | 4.72 | inactive
PRKAG1 (protein kinase AMP-activated non-catalytic subunit gamma 1) | SID160714914 | 1.01 | 10.1 | 7.49 | inactive
PRKAG1 (protein kinase AMP-activated non-catalytic subunit gamma 1) | SID160714915 | 0.945 | 9.62 | 8.29 | inactive
ITFG1 (integrin alpha FG-GAP repeat containing 1) | SID160750762 | 0.341 | 5.37 | 6.14 | inactive
ITFG1 (integrin alpha FG-GAP repeat containing 1) | SID160750763 | 3.25 | 25.8 | 16.2 | inactive
ITFG1 (integrin alpha FG-GAP repeat containing 1) | SID160750764 | -0.603 | -1.28 | 4.31 | inactive
TPH1 (tryptophan hydroxylase 1) | SID160718275 | -0.664 | -1.71 | 4.88 | inactive
TPH1 (tryptophan hydroxylase 1) | SID160718276 | 7.58 | 56.3 | 23 | active
TPH1 (tryptophan hydroxylase 1) | SID160718277 | 0.422 | 5.93 | 6.47 | inactive
YBX2 (Y-box binding protein 2) | SID160740015 | 2.84 | 22.9 | 16.4 | inactive
YBX2 (Y-box binding protein 2) | SID160740016 | -0.752 | -2.33 | 3.38 | inactive
YBX2 (Y-box binding protein 2) | SID160740017 | 0.637 | 7.45 | 6.66 | inactive
GPR32 (G protein-coupled receptor 32) | SID160773540 | -1.01 | -4.15 | 4.36 | inactive
GPR32 (G protein-coupled receptor 32) | SID160773550 | 0.796 | 8.57 | 7.51 | inactive
GPR32 (G protein-coupled receptor 32) | SID160773560 | 1.77 | 15.4 | 8 | inactive
RPL9P25 (ribosomal protein L9 pseudogene 25) | SID160734193 | 3.7 | 29 | 11.4 | inactive
RPL9P25 (ribosomal protein L9 pseudogene 25) | SID160771117 | 0.0696 | 3.46 | 4.83 | inactive
RPL9P25 (ribosomal protein L9 pseudogene 25) | SID160771118 | -0.919 | -3.5 | 1.88 | inactive
MFSD1 (major facilitator superfamily domain containing 1) | SID160747889 | -0.143 | 1.96 | 5.04 | inactive
MFSD1 (major facilitator superfamily domain containing 1) | SID160747890 | -1.04 | -4.34 | 2.65 | inactive
MFSD1 (major facilitator superfamily domain containing 1) | SID160747891 | -0.127 | 2.07 | 6.5 | inactive
MOV10L1 (Mov10 like RNA helicase 1) | SID160741704 | -0.373 | 0.344 | 6.11 | inactive
MOV10L1 (Mov10 like RNA helicase 1) | SID160741705 | -1.14 | -5.06 | 2.37 | inactive
MOV10L1 (Mov10 like RNA helicase 1) | SID160741706 | -0.571 | -1.05 | 3.4 | inactive
NR1I3 (nuclear receptor subfamily 1 group I member 3) | SID160723578 | 6.97 | 52 | 23.2 | active
NR1I3 (nuclear receptor subfamily 1 group I member 3) | SID160723579 | -1.25 | -5.85 | 2.54 | inactive
NR1I3 (nuclear receptor subfamily 1 group I member 3) | SID160723581 | -0.781 | -2.52 | 3.12 | inactive
PRG3 (proteoglycan 3, pro eosinophil major basic protein 2) | SID160728322 | -0.74 | -2.24 | 4.32 | inactive
PRG3 (proteoglycan 3, pro eosinophil major basic protein 2) | SID160728323 | 1.01 | 10.1 | 8.16 | inactive
PRG3 (proteoglycan 3, pro eosinophil major basic protein 2) | SID160728325 | -0.617 | -1.37 | 2.91 | inactive
KCNJ11 (potassium inwardly rectifying channel subfamily J member 11) | SID160776190 | 4.38 | 33.8 | 17.6 | inactive
KCNJ11 (potassium inwardly rectifying channel subfamily J member 11) | SID160776192 | 1.81 | 15.7 | 10.1 | inactive
KCNJ11 (potassium inwardly rectifying channel subfamily J member 11) | SID160776193 | 0.844 | 8.9 | 7.85 | inactive
UBE2A (ubiquitin conjugating enzyme E2 A) | SID160718516 | -0.331 | 0.637 | 5.87 | inactive
UBE2A (ubiquitin conjugating enzyme E2 A) | SID160718517 | 1.55 | 13.9 | 9.43 | inactive
UBE2A (ubiquitin conjugating enzyme E2 A) | SID160731864 | -0.619 | -1.39 | 4.02 | inactive
